This is an account of results in PubChem BioAssay AID2685 (National Center for Advancing Translational Sciences (NCATS), 2010).

Some of the results follow. Shown are side measurements of this screen, not its main read-out; they come without a call. The list favours compounds with an active or inconclusive main result. The note in brackets gives the kind of curve behind each potency; many fits are weak.

The test in a line: qHTS Assay for Lipid Storage Modulators in Drosophila S3 Cells.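 On cell number change: cells counted by Cell Tracker Red CMTPX staining in the red channel.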 As to conditions: BODIPY lipid droplet fluorescence, 18-24 h; for cell number change: measured here: cell count max response, cells fed with added oleic acid. In outline:
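Drosophila S3 cells loaded with oleic acid (400 uM, as added) and compounds at several concentrations; lipid droplets imaged by 488-nm laser-scanning cytometry, 500–530 nm intensity and object ratio to cell channel. Percent activity normalized to 20 uM Triacsin C.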

Where [1] appears, read: measured here: lipid fluorescence (Fed channel) AC50, cells fed with added oleic acid.
The mark [2] stands for this setting: measured here: cell number channel AC50, cells fed with added oleic acid.

As to `CCOc1ccc(NC(=O)CSc2nnc(COc3c(C)cccc3C)o2)cc1`, the AC50 (usually the midpoint of the concentration-response curve, whichever way the signal moves) under setting [1] was 3.66 µM [rising, single point]. `NS(=O)(=O)c1ccc(CCNc2ccccc2[N+](=O)[O-])cc1`: the cell number change is -0.451%. Also, under setting [1], the AC50 was 0.58 µM [falling, single point]. For `O=C(N/N=C\c1ccc(CNS(=O)(=O)c2ccc(Cl)cc2)o1)C(=O)Nc1ccc(Oc2ccccc2)cc1`, the cell number change is -50.6%. Under setting [2], the AC50 was 7.31 µM [falling, partial curve]. Besides, the concentration at half-maximal activity (AC50) under setting [1] is 7.31 µM [falling, partial curve]. Consider `CNC(=O)c1csc(-c2ccccc2)n1`, for which the cell number change was 29.7%. Also, the AC50 under setting [1] was 11.6 µM [rising, partial curve, poor fit]. For the compound `COc1ccc(-c2noc(CSc3nnc(Cc4ccccc4)n3-c3cccc(C)c3)n2)cc1OC`, the cell number change is -27%.

`O=C(Nc1ccccc1)OC1C2CCC1C(N1CCCCC1)CC2` (centres undefined): the cell number change worked out at 0.0641%. Besides, under setting [1], the AC50 is 0.13 µM [falling, single point]. As to `CCOCCCn1c(=O)c2ccccc2n2c(=S)[nH]nc12`, the half-maximal activity concentration (AC50) runs as follows: under setting [2], 2.91 µM [rising, single point]; under setting [1], 2.91 µM [rising, single point]. With `CCOc1ccc(S(=O)(=O)NCc2cccs2)cc1C(C)C`, the cell number change was -15.5%.

Regarding `C#CCOCCOCCOCCNc1nc(N2CCN(C(=O)CCCCCCCCCCNC(=O)Cn3cc(CCCCCN)nn3)CC2)nc(N2CCN(C(=O)CCCCCCCCCCNC(=O)[C@H]([C@@H](C)CC)n3cc(CCCCN=C(N)N)nn3)CC2)n1`, the cell number change is -19.3%. Besides, the AC50 under setting [1] is 2.31 µM [falling, partial curve, poor fit].

As for `COc1ccc(Nc2nc(NCC3CCCO3)nc(N)c2[N+](=O)[O-])cc1` (centres undefined), the cell number change is -43.6%. Also, the AC50 under setting [2] is 7.31 µM [falling, partial curve]. Besides, under setting [1], the half-maximal activity concentration (AC50) was 7.31 µM [falling, partial curve]. As for `CCCn1nc(NC(=O)c2ccccn2)c2cc3cc(C)ccc3nc21`, the cell number change amounted to 37.4%. In addition, under setting [2], the AC50 was 0.103 µM [rising, full curve]. The AC50 under setting [1] was 0.58 µM [rising, single point].

For the compound `Cc1ccccc1OCc1nc(-c2ccc(NC(=O)c3ccco3)cc2)no1`, the cell number change is -67.9%. For the same compound, the half-maximal activity concentration (AC50) under setting [2] was 9.2 µM [falling, partial curve]. For the same compound, under setting [1], the AC50 was 10.3 µM [falling, partial curve].

Take `Cc1ccc(CSCC(=O)NN=C2CCN(C)CC2)cc1`: the cell number change was 23.4%. `Cc1cc(Br)c(OCc2ccc(C(=O)N/N=C/c3ccc[nH]3)cc2)c(Br)c1`: the cell number change was -30.4%. Further, under setting [2], the concentration at half-maximal activity (AC50) was 29.1 µM [falling, partial curve, poor fit]. `O=C1CC2(CCN(C(=O)c3ccccc3F)CC2)Oc2ccccc21`: the cell number change is 7.13%. Besides, the AC50 under setting [1] is 0.731 µM [falling, partial curve]. Take `Cc1ccc(-c2nnc(N3CCC(C)CC3)c3ccccc23)cc1`: the cell number change amounted to 22.8%. Also, under setting [2], the half-maximal activity concentration (AC50) is 0.517 µM [rising, partial curve, poor fit]. As to `CCOC(=O)N1CCN(c2ccc(C(=O)c3cccc(F)c3)cc2)CC1`, the cell number change was -18%. For the same compound, the concentration at half-maximal activity (AC50) under setting [1] was 29.1 µM [falling, single point]. Turning to `NS(=O)(=O)c1ccc(Cl)cc1[N+](=O)[O-]`, the cell number change is -12.1%. Also, the concentration at half-maximal activity (AC50) under setting [1] is 29.1 µM [falling, single point].

On to `COc1ccc(Cl)cc1/C=C(\C#N)C(N)=O`, for which the cell number change was 27.1%. In addition, under setting [1], the AC50 was 29.1 µM [rising, single point]. Turning to `Cc1cc(C(=O)Nn2cnnc2)cs1`, the cell number change came to 0.765%. For the same compound, under setting [1], the half-maximal activity concentration (AC50) is 29.1 µM [falling, single point].

`CCN(CC)CCN(C(=O)Cn1nnc(-c2ccc(C)o2)n1)C(C(=O)NC1CCCC1)c1ccc(F)cc1` (centres undefined): the cell number change was found to be 24.6%. Turning to `Cc1ccc(Cn2cc(S(=O)(=O)c3ccc(C(C)C)cc3)c(=O)c3cc4c(cc32)OCO4)cc1`, the cell number change was 16.5%. Also, the concentration at half-maximal activity (AC50) under setting [1] was 32.6 µM [rising, partial curve, poor fit].

For `Cc1cnc(-c2nnc(N(C)C(=O)C3CCOC3)s2)cn1` (centres undefined), the AC50 under setting [1] was 0.82 µM [falling, full curve, poor fit]. With `CNc1nc(Sc2ccccc2)cc(C(F)(F)F)n1`, the cell number change was -32.7%. For the same compound, the AC50 under setting [2] was 29.1 µM [falling, single point]. For the same compound, the half-maximal activity concentration (AC50) under setting [1] was 29.1 µM [falling, single point].

Take `CC1(C)CC(=O)C(C=NCC2CCN(C(=O)Nc3ccc(Cl)c(Cl)c3)CC2)=C(O)C1`: the cell number change was determined as 18.8%.

Regarding `Cc1n[nH]c(=O)c2c(NC(=O)CSc3ccccc3Cl)oc(C)c12`, the cell number change is 2.53%. On to `COc1cc2ccccc2cc1C(=O)Nc1ccc(O)cc1`, for which the cell number change was -47.8%. Moreover, the half-maximal activity concentration (AC50) under setting [2] is 18.4 µM [falling, single point]. In addition, the concentration at half-maximal activity (AC50) under setting [1] is 29.1 µM [falling, single point]. Regarding `O=C(CCCc1nc2ccccc2s1)NCc1cccnc1`, the cell number change worked out at 61.7%. The half-maximal activity concentration (AC50) under setting [2] is 5.17 µM [rising, partial curve].

Consider `CCN(CC)c1ccc(NC(=O)COc2ccc(N(C)S(=O)(=O)c3cccs3)cc2)cc1`, for which the AC50 under setting [1] was 3.66 µM [rising, single point]. As to `O=C(CN1CCc2ccccc21)NN1CC(=O)N(c2ccc(Cl)cc2)CC1=O`, the cell number change stood at 1.71%. The AC50 under setting [1] was 0.103 µM [falling, full curve, poor fit].

As for `O=C1c2ccsc2SCCN1Cc1ccc(Cl)cc1`, the cell number change amounted to 18.7%. In addition, the AC50 under setting [1] was 1.3 µM [falling, full curve]. `O=C1CCN(Cc2ccccc2)CCN1CCSc1ccccc1`: the cell number change was found to be 21.7%. The AC50 under setting [1] was 10.3 µM [rising, partial curve].

As for `COc1ccc(CCCC(=O)N/N=C/c2ccccc2OC)cc1`, the cell number change came to 5.6%. In addition, the AC50 under setting [2] was 0.651 µM [falling, single point]. For `CCN1CCN(c2ccc([N+](=O)[O-])cc2S(=O)(=O)N2CCOCC2)CC1`, the cell number change is -7.71%. Under setting [2], the concentration at half-maximal activity (AC50) is 0.731 µM [falling, partial curve]. Also, the AC50 under setting [1] was 0.259 µM [falling, full curve]. As to `CCCNC(=O)c1ccccc1NC(=O)Cc1ccc(OC)c(S(=O)(=O)N2CCOCC2)c1`, the cell number change worked out at 15.5%. As to `CO/N=C/CC(=O)c1cnc(-c2ccc(Cl)cc2)s1`, the cell number change amounted to 5.56%. The concentration at half-maximal activity (AC50) under setting [1] is 2.06 µM [rising, partial curve, poor fit]. Turning to `O=C(Nc1nc(-c2ccc(-c3ccccc3)cc2)cs1)C1=COCCO1`, the cell number change is -13.6%. For the same compound, the half-maximal activity concentration (AC50) under setting [1] was 11.6 µM [falling, partial curve, poor fit].

As for `CC(=O)c1c(C)[nH]c(C(=O)NCCc2ccc(Cl)cc2)c1C`, the AC50 by setting is: under setting [2], 0.103 µM [rising, single point]; under setting [1], 6.51 µM [rising, single point]. Turning to `O=C(NCCO)C(=O)Nc1cc2c3c(c1)CCC(=O)N3CCC2`, the cell number change is -58.1%. Also, under setting [2], the AC50 was 16.4 µM [falling, single point]. Also, the concentration at half-maximal activity (AC50) under setting [1] is 6.51 µM [falling, partial curve]. In the case of `CC/C(C)=N\Nc1nc(-c2cc3cc(OC)ccc3oc2=O)cs1`, the cell number change worked out at 1.94%. For the same compound, the AC50 under setting [2] was 2.06 µM [rising, partial curve, poor fit].

Regarding `CC(C)NC(=O)C1CCN(C2CCN(C(=O)c3cc4c(s3)CCCCC4)CC2)CC1`, the cell number change was -44.6%. Under setting [2], the AC50 is 5.17 µM [falling, full curve, poor fit]. In addition, the AC50 under setting [1] is 5.8 µM [falling, full curve].

For `CC(C)CN(CCNC(=O)CN1C(=O)COc2ccc(S(=O)(=O)N3CCOCC3)cc21)CC(C)C`, the cell number change was -21.3%. Regarding `CC(C)(C)C(=O)Nc1ccccc1C(=O)NCc1cccnc1`, the cell number change stood at 13.5%. The AC50 under setting [1] was 0.00651 µM [rising, full curve, poor fit]. Regarding `Cc1ccc(C)c(N(CC(=O)NCCSCc2ccco2)S(C)(=O)=O)c1`, the cell number change is -3.74%. Turning to `COC(=O)c1cc(S(=O)(=O)N2CCN(c3cccc(C)c3)C(C)C2)c[nH]1` (centres undefined), the cell number change turned out to be 24.8%. The half-maximal activity concentration (AC50) under setting [1] is 0.731 µM [rising, single point].

On to `COC(=O)Nc1ccc(S(=O)(=O)n2cnc3ccccc32)cc1`, for which the cell number change worked out at 2.68%. For `Cc1ccc(N=C(NOCc2ccc(Cl)cc2Cl)c2nonc2N)c(C)c1`, the cell number change came to 4.16%. Besides, the concentration at half-maximal activity (AC50) under setting [2] was 3.66 µM [rising, single point]. Further, the AC50 under setting [1] is 14.6 µM [falling, partial curve]. Turning to `N#C/C(=C\c1cccc(OC(=O)c2cccs2)c1)C(N)=O`, the cell number change was -64.2%. The concentration at half-maximal activity (AC50) under setting [2] was 20.6 µM [falling, single point]. Further, under setting [1], the AC50 was 29.1 µM [falling, single point].

`COCCOC1CCN(C(=O)C2CCC(=O)N(CCc3ccc(OC)cc3)C2)CC1` (centres undefined): under setting [1], the AC50 was 1.46 µM [falling, partial curve, poor fit]. As to `CCOC(=O)c1cc(NC(=O)c2ccoc2C)cc(C(=O)OCC)c1`, the AC50 runs as follows: under setting [2], 0.461 µM [rising, full curve]; under setting [1], 0.731 µM [rising, full curve]. On to `O=C(Nc1ccc(N2CCCCC2)c(Cl)c1)c1cccnc1`, for which the cell number change was -21.5%. The AC50 under setting [1] is 32.6 µM [falling, single point]. In the case of `COc1ccc(CN2CC(=O)N(c3ccc(C)c(C)c3)C2=S)cc1OC`, the cell number change amounted to 27%. For the same compound, under setting [1], the AC50 is 9.2 µM [rising, partial curve, poor fit]. Turning to `O=C(/C=C/c1cccs1)Nc1ccc(N2CCOCC2)c(S(=O)(=O)Nc2ccccc2Cl)c1`, the cell number change amounted to 7.81%. Also, under setting [1], the half-maximal activity concentration (AC50) was 18.4 µM [rising, single point]. For the compound `CCC(C)(C)C1CCc2[nH]nc(C(=O)O)c2C1` (centres undefined), the cell number change was -39%. Moreover, the AC50 under setting [2] is 25.9 µM [falling, single point]. In addition, the AC50 under setting [1] is 0.58 µM [falling, full curve, poor fit]. With `CCS(=O)(=O)N1CCN(S(=O)(=O)c2ccc3c(c2)OCCO3)CC1`, the cell number change worked out at 2.99%. Further, the concentration at half-maximal activity (AC50) under setting [1] is 6.51 µM [rising, single point]. For `CCCCC(=O)Nc1c(C)cc(C)cc1Cl`, the cell number change is 22.4%.

Take `O=C(O)CSc1nnc(-c2ccncc2)n1Cc1ccccc1`: the cell number change came out at 31.8%. Also, under setting [2], the AC50 is 10.3 µM [rising, partial curve, poor fit]. Besides, the concentration at half-maximal activity (AC50) under setting [1] is 6.51 µM [rising, partial curve, poor fit]. Take `CC(=O)N1c2ccc(S(=O)(=O)N3CCCCC3)cc2CC1C(=O)NCc1ccccc1C` (centres undefined): the cell number change was -2.83%. For the same compound, under setting [1], the AC50 is 5.17 µM [rising, single point].
